Measurements as given in patent US12161641B2, “Treatments and prevention of opioid neonatal abstinence syndrome” (Ohio State Innovation Foundation, priority 2016, dated 2024).
At least one compound was matched to its structure with a doubt left.

Tested on: pre-weaning age mice
Assay: Naloxone-induced withdrawal jumping after morphine dosing in early postnatal mice
Format: in vivo
Conditions: 0.15-0.3 mg/kg (1/67th of the dose of morphine)
Description: Animals were injected with morphine alone or morphine mixed with increasing amounts of 6β-naltrexol. Injections were started on postnatal day 12 (PD12) and continued for 5 days. On days 1-3 morphine was injected at 10 mg/kg, and at 20 mg/kg on days 4 and 5. On day 6 (PD18) a final injection of 20 mg/kg was made, and 3 hours later mice were injected with 30 mg/kg naloxone to induce withdrawal. All injections were subcutaneous. When Morphine was co-injected with 6β-naltrexol the latter was held at a constant ratio when the Morphine dose was increased on days 4-6. Because of the changing Morphine dosages the 6β-naltrexol dose is reported as a ratio relative to Morphine, or as a dose range. Immediately upon injection with naloxone mice were placed in a clear plastic container with a 6 inch square base and 10 inches tall, with a lid. Withdrawal jumping was videotaped and jumps were scored in a 15 minute interval.
Summary data are presented as means+1 SEM unless otherwise indicated Continuous data (drug concentrations) were analyzed using one-way ANOVA and post hoc comparisons were made using either Dunnett's procedure (for one-to-many comparisons) or t-tests (for all-pairs contrasts). […] AUCs were integrated over the time span analyzed (i.e., from 0 to 240 min; Wolfsegger, M J, et al. (2009) J Pharmacokinet Pharmacodyn 36:479-494). […]

Oc1ccc2c3c1O[C@H]1[C@H](O)CC[C@@]4(O)[C@@H](C2)N(CC2CC2)CC[C@]314 [6β-naltrexol]
latency-to-first-jump: 345-54 sec
